In publication PMC6837540:
These are yes or no findings as the source states them, for the method shown. In cells and extracts the contact can be indirect. Some results given as binding are weak or reduced against the parent protein; the word gives no strength.

Sequences of proteins named here, by UniProt entry; tags and fusion partners are left off.
UniProt Q9UF56: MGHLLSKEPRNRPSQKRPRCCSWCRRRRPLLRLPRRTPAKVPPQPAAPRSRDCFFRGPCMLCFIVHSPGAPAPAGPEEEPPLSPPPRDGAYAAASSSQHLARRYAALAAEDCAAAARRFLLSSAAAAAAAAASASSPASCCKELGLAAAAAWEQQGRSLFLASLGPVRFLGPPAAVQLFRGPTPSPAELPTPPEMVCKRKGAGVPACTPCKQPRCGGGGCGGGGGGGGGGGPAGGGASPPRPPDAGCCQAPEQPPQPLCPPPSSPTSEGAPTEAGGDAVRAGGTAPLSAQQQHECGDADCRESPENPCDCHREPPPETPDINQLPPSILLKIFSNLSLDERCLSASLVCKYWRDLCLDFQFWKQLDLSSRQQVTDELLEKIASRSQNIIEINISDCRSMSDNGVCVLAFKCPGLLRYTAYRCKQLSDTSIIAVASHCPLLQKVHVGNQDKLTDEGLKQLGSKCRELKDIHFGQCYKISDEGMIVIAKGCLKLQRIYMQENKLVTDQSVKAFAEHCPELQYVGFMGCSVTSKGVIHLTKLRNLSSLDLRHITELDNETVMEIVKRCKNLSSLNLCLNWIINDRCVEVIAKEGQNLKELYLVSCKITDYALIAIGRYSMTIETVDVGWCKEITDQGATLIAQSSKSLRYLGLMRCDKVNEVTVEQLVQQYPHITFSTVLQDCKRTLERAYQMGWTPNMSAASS
UniProt P63208: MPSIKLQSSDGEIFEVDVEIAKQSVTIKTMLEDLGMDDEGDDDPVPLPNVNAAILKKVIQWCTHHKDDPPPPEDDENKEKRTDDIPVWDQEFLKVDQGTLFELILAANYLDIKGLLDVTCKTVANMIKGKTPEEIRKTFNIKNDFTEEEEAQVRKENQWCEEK

Target: FLAG-Fbxl17 (UniProt Q9UF56)
Experiment: co-IP; HEK293T transfected with Skp1, Cul1, Myc-Rbx1 and FLAG-Fbxl17; lysis in 25 mM Tris-HCl pH 7.5, 225 mM KCl, 1% NP-40; Anti-FLAG M2 Affinity Gel 5 hours at 4°C, eluted with FLAG peptide; immunoblot

binding: binds
Substance: Skp1 (from UniProt P63208 1-163)
